Experimental findings from patent publication US20230190717A1, “P38 GAMMA INHIBITORS AND METHOD OF USE THEREOF” (City of Hope, priority 2017, published 2023) are described below.

This series deals with H9 cells. Kind of series: NanoString RNA analysis of H9 cells, F7 versus p38γ shRNA knockdown. Type of series: cell-based. As to conditions: F7 500 nM, 24 h.

Turning to `Cc1ccc([N+](=O)[O-])cc1S(=O)(=O)N(C)/N=C/c1cnc2ccc(Br)cn12` [Compound F7], the “correlation coefficient of gene expression alterations, knockdown of p38γ versus F7 treatment” value (PanCancer Immune panel) is recorded as 0.6; the “correlation coefficient of gene expression alterations, knockdown of p38γ versus F7 treatment” value (PanCancer Pathway panel) is listed as 0.7; the “correlation coefficient of gene expression alterations, knockdown of p38γ versus F7 treatment” value (two merged panels, FIG. 15A) is recorded as 0.628.
